# Values from PubChem BioAssay AID1224829 (NIAID, 2016).
# Test: 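Secondary check of hits that alter LPS-induced p65 translocation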 (follow-up of hits)
# Cells: mouse RAW264.7 G9 macrophage reporter cells
# Reagents: single siRNA against mouse genes, 100 nM
# Time to read-out: 2 days of siRNA knock-down, then 40 min of LPS before fixing
# Treatment: LPS (Salmonella minnesota R595) at 10 ng/ml
# Measurement: 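Imaging of GFP-p65 after 40 min of LPS; nuclear over perinuclear ring intensity ratio, scaled to plate median and non-targeting control wells, given as z-score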
# Scale: p65 translocation z-score: higher = more nuclear NF-kappaB p65 after LPS
# Active means: 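Active means the replicate-mean z-score lies beyond plus or minus 2, in either direction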
# Calls: active = changed p65 translocation (either direction); inactive = no clear change
# The whole screen tested about 3,800 reagents; shown is a part drawn at random. 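Calls cover raised and lowered translocation; gene median uses one vendor's three siRNAs; qiagen siRNAs acted more weakly than ambion siRNAs.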 Reagents against one gene are numbered here. Further read-outs or replicates are left out here. No sequences are given here.
gene,reagent,siRNA vendor or control pool,"p65 translocation z-score, replicate mean","p65 translocation z-score, replicate 1",call
2900005J15Rik (RIKEN cDNA 2900005J15 gene),1,ambion single siRNA,0.0802,-1.16,inactive
2900005J15Rik (RIKEN cDNA 2900005J15 gene),2,ambion single siRNA,-1.04,-0.529,inactive
2900005J15Rik (RIKEN cDNA 2900005J15 gene),3,ambion single siRNA,-1.32,0.338,inactive
2900005J15Rik (RIKEN cDNA 2900005J15 gene),4,qiagen single siRNA,0.414,1.14,inactive
2900005J15Rik (RIKEN cDNA 2900005J15 gene),5,qiagen single siRNA,2.04,1.34,active
2900005J15Rik (RIKEN cDNA 2900005J15 gene),6,qiagen single siRNA,1.03,0.449,inactive
"Pcdhgc4 (protocadherin gamma subfamily C, 4)",1,ambion single siRNA,-1.73,-1.14,inactive
"Pcdhgc4 (protocadherin gamma subfamily C, 4)",2,ambion single siRNA,-0.309,-0.614,inactive
"Pcdhgc4 (protocadherin gamma subfamily C, 4)",3,ambion single siRNA,0.000735,1.24,inactive
"Pcdhgc4 (protocadherin gamma subfamily C, 4)",4,qiagen single siRNA,5.82,3.41,active
"Pcdhgc4 (protocadherin gamma subfamily C, 4)",5,qiagen single siRNA,0.471,-0.0954,inactive
"Pcdhgc4 (protocadherin gamma subfamily C, 4)",6,qiagen single siRNA,-1.32,-0.967,inactive
Sgpl1 (sphingosine phosphate lyase 1),1,ambion single siRNA,0.236,0.38,inactive
Sgpl1 (sphingosine phosphate lyase 1),2,ambion single siRNA,-0.223,0.532,inactive
Sgpl1 (sphingosine phosphate lyase 1),3,ambion single siRNA,-1.62,-1.58,inactive
Sgpl1 (sphingosine phosphate lyase 1),4,qiagen single siRNA,1.38,-0.43,inactive
Sgpl1 (sphingosine phosphate lyase 1),5,qiagen single siRNA,2.42,1.28,active
Sgpl1 (sphingosine phosphate lyase 1),6,qiagen single siRNA,-0.0583,-1.31,inactive
Galnt6 (polypeptide N-acetylgalactosaminyltransferase 6),1,ambion single siRNA,-4.58,-5.85,active
Galnt6 (polypeptide N-acetylgalactosaminyltransferase 6),2,ambion single siRNA,-2.52,-1.54,active
Galnt6 (polypeptide N-acetylgalactosaminyltransferase 6),3,ambion single siRNA,-0.638,0.228,inactive
Galnt6 (polypeptide N-acetylgalactosaminyltransferase 6),4,qiagen single siRNA,2.23,1.26,active
Galnt6 (polypeptide N-acetylgalactosaminyltransferase 6),5,qiagen single siRNA,1.03,1.28,inactive
Galnt6 (polypeptide N-acetylgalactosaminyltransferase 6),6,qiagen single siRNA,-2.75,-2.75,active

Individual results from above:
Under “p65 translocation z-score, replicate mean”, Galnt6 (polypeptide N-acetylgalactosaminyltransferase 6) #2, siRNA vendor or control pool ambion single siRNA is entered as -2.52
For “call”, 2900005J15Rik (RIKEN cDNA 2900005J15 gene) #4, siRNA vendor or control pool qiagen single siRNA shows inactive
2900005J15Rik (RIKEN cDNA 2900005J15 gene) #2, siRNA vendor or control pool ambion single siRNA, call: inactive
Pcdhgc4 (protocadherin gamma subfamily C, 4) #2, siRNA vendor or control pool ambion single siRNA, call: inactive

Further results follow.
gene,reagent,siRNA vendor or control pool,"p65 translocation z-score, replicate mean","p65 translocation z-score, replicate 1",call
Dynlrb2 (dynein light chain roadblock-type 2),1,ambion single siRNA,-1,-1.34,inactive
Dynlrb2 (dynein light chain roadblock-type 2),2,ambion single siRNA,-4.15,-4.28,active
Dynlrb2 (dynein light chain roadblock-type 2),3,ambion single siRNA,-3.07,-3.74,active
Dynlrb2 (dynein light chain roadblock-type 2),4,qiagen single siRNA,1.34,0.597,inactive
Dynlrb2 (dynein light chain roadblock-type 2),5,qiagen single siRNA,-0.047,-0.024,inactive
Dynlrb2 (dynein light chain roadblock-type 2),6,qiagen single siRNA,-2.63,-2.23,active
Or9m1 (olfactory receptor family 9 subfamily M member 1),1,ambion single siRNA,-6.18,-6.94,active
Or9m1 (olfactory receptor family 9 subfamily M member 1),2,ambion single siRNA,-7.93,-9.34,active
Or9m1 (olfactory receptor family 9 subfamily M member 1),3,ambion single siRNA,1.49,1.9,inactive
Or9m1 (olfactory receptor family 9 subfamily M member 1),4,qiagen single siRNA,0.292,0.817,inactive
Or9m1 (olfactory receptor family 9 subfamily M member 1),5,qiagen single siRNA,1.92,0.837,inactive
Or9m1 (olfactory receptor family 9 subfamily M member 1),6,qiagen single siRNA,2.66,2.21,active
